# Reference: the supplement of paper PMC12819154, “High-throughput peptide-centric local stability assay extends protein–ligand identification to membrane proteins, tissues and bacteria” (Nature Structural & Molecular Biology, 2025)
# The chains behind the UniProt entries cited, without tags or fusion partners. Where a name states a change or a piece, a line headed by the entry shows the natural chain unless it says otherwise.
# UniProt P58686: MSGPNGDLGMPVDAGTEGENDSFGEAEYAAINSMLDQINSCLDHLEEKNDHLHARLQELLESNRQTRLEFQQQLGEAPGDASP
# UniProt P56581: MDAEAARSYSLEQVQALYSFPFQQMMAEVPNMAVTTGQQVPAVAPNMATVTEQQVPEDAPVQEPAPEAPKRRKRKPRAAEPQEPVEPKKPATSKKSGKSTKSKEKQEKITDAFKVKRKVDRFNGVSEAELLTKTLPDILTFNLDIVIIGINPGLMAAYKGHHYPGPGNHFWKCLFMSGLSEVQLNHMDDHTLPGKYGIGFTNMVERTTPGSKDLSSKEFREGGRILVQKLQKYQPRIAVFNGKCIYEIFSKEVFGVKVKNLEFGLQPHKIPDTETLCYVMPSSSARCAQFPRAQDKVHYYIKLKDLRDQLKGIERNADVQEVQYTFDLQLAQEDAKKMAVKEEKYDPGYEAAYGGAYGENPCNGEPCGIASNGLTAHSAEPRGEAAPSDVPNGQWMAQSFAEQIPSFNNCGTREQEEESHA
# UniProt P63034: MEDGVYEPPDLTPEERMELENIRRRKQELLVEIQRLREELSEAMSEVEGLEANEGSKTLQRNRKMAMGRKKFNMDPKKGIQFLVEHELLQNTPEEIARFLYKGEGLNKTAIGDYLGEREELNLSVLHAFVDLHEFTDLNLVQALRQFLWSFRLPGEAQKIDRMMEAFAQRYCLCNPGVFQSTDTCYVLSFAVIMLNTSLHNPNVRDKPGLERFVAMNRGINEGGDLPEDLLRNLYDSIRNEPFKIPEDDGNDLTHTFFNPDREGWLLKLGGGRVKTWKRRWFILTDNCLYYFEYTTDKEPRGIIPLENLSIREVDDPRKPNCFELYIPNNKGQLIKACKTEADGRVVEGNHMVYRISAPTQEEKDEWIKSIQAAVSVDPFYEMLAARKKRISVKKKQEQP
# UniProt P59279: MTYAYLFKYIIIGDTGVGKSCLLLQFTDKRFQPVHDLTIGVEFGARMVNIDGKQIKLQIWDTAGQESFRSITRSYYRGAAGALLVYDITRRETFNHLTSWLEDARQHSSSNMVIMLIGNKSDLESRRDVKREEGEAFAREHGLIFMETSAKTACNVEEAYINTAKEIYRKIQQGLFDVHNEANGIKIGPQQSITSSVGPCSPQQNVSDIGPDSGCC
# UniProt P59764: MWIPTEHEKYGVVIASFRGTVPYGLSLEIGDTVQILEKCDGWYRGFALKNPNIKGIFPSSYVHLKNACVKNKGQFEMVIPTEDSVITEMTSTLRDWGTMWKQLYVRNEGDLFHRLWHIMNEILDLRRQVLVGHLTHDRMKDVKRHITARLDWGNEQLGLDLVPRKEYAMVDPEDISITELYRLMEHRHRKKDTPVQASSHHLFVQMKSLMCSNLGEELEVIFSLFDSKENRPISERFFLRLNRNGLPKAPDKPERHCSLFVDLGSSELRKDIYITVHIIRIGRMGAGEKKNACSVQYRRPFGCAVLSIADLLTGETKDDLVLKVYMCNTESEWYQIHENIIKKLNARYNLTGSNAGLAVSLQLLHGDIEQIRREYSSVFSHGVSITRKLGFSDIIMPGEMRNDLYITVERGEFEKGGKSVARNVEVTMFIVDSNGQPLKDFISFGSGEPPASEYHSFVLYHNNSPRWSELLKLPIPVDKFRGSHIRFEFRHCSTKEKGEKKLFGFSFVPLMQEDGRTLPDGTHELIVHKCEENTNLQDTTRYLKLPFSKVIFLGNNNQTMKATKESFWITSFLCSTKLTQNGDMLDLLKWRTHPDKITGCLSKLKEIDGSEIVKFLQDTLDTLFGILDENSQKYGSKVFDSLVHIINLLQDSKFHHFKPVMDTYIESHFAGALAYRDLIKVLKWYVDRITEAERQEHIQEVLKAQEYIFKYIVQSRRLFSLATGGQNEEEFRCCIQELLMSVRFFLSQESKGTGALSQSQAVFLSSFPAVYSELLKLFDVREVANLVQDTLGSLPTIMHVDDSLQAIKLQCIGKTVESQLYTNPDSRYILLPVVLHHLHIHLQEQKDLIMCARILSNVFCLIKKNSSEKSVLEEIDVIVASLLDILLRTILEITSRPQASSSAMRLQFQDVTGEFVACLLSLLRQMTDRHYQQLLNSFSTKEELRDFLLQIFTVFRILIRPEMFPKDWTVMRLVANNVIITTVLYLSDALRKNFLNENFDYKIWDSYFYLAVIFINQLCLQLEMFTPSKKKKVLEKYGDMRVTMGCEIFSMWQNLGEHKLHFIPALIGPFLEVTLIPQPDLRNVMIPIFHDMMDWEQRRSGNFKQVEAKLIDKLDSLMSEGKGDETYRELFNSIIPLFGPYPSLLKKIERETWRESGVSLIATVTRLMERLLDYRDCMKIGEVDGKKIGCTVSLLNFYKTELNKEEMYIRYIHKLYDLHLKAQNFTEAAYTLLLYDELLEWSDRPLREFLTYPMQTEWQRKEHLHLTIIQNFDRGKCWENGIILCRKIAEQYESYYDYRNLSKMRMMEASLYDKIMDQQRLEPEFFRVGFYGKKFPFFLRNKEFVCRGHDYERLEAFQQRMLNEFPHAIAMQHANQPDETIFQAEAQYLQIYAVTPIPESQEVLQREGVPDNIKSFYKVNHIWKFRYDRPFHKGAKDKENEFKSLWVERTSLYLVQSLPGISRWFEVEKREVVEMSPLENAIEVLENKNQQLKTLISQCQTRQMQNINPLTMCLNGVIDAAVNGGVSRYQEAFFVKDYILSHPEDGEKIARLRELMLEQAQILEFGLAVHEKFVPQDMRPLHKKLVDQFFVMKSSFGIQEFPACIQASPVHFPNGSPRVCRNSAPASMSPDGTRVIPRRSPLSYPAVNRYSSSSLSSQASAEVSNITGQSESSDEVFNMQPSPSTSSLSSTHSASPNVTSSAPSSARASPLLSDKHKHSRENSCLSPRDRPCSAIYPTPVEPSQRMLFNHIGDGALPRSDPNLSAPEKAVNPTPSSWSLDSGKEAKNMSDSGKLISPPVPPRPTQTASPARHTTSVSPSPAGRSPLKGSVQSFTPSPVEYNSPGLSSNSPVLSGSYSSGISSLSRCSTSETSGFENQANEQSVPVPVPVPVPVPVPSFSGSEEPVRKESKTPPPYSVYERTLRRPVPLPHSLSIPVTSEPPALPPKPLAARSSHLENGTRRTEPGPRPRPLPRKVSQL
# UniProt P56655: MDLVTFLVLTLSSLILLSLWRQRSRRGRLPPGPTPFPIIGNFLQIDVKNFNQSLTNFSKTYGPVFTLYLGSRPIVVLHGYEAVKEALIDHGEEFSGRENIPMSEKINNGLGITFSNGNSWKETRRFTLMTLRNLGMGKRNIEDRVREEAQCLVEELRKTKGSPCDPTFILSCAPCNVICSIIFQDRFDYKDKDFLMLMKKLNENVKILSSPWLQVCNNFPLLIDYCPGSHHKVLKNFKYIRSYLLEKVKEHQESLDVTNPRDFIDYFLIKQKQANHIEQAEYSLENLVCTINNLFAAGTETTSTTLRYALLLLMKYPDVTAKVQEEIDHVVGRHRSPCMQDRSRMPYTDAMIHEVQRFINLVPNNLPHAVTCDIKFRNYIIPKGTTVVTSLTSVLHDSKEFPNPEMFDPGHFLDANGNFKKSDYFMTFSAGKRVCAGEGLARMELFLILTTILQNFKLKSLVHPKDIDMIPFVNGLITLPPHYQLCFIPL
# UniProt P62960, whole entry: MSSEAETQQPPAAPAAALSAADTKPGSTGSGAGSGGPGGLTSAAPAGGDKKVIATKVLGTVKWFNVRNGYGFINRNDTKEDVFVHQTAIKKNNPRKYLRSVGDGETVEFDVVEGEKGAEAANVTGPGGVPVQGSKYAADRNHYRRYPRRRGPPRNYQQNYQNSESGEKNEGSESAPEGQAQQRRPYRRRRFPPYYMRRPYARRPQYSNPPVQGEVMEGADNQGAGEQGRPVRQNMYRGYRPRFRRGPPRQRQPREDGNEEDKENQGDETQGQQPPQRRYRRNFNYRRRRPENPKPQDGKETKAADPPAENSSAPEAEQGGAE
# UniProt P56959: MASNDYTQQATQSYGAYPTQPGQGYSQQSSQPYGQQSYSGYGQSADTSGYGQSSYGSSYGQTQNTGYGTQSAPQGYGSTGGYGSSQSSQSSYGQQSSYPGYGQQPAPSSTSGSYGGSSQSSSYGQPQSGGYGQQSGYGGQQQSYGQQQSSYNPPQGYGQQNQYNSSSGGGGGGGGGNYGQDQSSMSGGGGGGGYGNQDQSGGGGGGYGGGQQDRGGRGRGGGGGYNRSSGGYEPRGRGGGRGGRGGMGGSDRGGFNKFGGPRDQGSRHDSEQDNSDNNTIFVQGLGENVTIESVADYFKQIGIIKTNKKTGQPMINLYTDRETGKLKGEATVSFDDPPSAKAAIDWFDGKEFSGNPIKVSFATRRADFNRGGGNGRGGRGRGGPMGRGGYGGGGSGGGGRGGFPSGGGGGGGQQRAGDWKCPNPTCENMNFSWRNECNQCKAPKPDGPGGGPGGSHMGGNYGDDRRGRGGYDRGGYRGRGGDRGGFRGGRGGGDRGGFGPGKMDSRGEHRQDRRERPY
# UniProt P61213: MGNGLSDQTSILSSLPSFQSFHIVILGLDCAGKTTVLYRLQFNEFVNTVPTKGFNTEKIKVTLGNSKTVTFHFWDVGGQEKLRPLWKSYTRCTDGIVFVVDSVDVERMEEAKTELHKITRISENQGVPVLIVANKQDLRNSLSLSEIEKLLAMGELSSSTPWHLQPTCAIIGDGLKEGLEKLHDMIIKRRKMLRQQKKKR
# UniProt P54841: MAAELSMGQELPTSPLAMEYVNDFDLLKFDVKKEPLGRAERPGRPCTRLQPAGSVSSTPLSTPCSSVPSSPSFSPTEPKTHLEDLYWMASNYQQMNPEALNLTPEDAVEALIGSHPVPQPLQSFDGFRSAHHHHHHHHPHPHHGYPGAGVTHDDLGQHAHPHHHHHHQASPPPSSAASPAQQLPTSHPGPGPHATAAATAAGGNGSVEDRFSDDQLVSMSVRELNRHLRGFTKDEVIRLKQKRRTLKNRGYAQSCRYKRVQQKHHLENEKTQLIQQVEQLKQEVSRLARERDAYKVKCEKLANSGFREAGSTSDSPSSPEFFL
# UniProt P58660: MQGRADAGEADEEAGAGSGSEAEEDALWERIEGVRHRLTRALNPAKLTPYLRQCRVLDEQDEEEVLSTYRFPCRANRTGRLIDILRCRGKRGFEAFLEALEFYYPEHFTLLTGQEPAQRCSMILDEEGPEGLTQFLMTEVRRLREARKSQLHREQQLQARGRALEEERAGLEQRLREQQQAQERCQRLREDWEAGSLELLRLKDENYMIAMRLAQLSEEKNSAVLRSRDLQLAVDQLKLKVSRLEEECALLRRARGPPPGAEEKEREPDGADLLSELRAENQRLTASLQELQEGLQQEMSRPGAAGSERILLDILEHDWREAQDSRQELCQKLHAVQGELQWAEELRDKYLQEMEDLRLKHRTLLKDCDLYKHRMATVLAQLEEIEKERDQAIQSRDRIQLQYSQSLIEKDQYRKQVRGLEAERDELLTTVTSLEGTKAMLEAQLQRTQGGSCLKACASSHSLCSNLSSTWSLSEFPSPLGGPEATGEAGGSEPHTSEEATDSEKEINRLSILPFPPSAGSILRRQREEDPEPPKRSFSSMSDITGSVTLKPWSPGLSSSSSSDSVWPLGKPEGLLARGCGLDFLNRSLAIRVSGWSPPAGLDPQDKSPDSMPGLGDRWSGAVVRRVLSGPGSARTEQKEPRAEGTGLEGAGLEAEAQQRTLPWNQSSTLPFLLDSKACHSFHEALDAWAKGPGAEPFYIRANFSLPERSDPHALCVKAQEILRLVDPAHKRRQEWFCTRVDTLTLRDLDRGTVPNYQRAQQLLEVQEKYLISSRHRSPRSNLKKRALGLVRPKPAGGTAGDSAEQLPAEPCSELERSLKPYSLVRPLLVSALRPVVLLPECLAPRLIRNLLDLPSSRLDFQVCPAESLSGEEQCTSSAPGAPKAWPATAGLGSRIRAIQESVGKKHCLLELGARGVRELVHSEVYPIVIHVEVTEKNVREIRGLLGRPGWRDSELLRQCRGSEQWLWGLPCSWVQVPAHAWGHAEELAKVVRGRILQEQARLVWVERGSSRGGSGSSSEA
# UniProt P56379: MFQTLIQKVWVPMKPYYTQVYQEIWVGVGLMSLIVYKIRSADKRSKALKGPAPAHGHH
# UniProt P58742: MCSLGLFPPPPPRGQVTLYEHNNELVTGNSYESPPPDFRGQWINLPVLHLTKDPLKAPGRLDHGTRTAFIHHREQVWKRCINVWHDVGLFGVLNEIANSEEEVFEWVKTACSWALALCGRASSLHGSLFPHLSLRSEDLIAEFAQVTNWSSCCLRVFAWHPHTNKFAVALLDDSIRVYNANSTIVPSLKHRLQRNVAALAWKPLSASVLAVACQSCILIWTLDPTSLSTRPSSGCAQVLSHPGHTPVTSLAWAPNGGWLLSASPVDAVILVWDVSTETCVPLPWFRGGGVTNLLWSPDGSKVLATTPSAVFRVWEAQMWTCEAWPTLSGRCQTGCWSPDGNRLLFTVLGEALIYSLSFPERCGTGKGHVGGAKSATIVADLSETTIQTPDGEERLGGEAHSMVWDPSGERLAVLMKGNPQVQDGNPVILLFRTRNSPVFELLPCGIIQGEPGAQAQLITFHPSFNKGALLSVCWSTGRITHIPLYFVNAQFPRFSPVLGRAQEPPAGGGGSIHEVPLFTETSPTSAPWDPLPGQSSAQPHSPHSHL
# This is one part of the list. Most values lie at the level of the controls, where differences are scatter.
# Compound: CN[C@@H]1C[C@H]2O[C@@](C)([C@@H]1OC)n1c3ccccc3c3c4c(c5c6ccccc6n2c5c31)C(=O)NC4 [staurosporine]
# Experiment: log2 fold change of tryptic peptide abundance, ligand vs vehicle (limited proteolysis) (log2 ratio); higher = more trypsin-susceptible (destabilized)
# Conditions: ligand concentration: 20 uM; sample: mouse liver crude lysate; replicate design: treated separately
row,Target,log2 fold change
1,"UniProt P58686 (peptide sequence: LQELLESNR, peptide start residue: 56)",0.201
2,"UniProt P56376 (peptide sequence: FMQQWLETR, peptide start residue: 61)",0.202
3,"UniProt P56581 (peptide sequence: AQDKVHYYIK, peptide start residue: 293)",0.507
4,"UniProt P63034 (peptide sequence: MELENIR, peptide start residue: 17)",0.079
5,"UniProt P62077 (peptide sequence: LVAAEQQK, peptide start residue: 15)",-0.0846
6,"UniProt P57110 (peptide sequence: RFVSEAR, peptide start residue: 228)",-0.225
7,"UniProt P59279 (peptide sequence: QHSSSNMVIMLIGNK, peptide start residue: 106)",0.303
8,"UniProt P55292 (peptide sequence: GNENGNFK, peptide start residue: 398)",0.589
9,"UniProt P59764 (peptide sequence: LISPPVPPRPTQTASPAR, peptide start residue: 1794)",0.169
10,"UniProt P58252 (peptide sequence: YFDPANGK, peptide start residue: 265)",-0.533
11,"UniProt P56655 (peptide sequence: FTLMTLR, peptide start residue: 126)",0.0802
12,"UniProt P55200 (peptide sequence: TPCLSAPSSSTVK, peptide start residue: 985)",0.65
13,"UniProt P60762 (peptide sequence: ARVDPTVENEETFMNR, peptide start residue: 177)",-0.315
14,"UniProt P60840 (peptide sequence: EGILPEKAEEAK, peptide start residue: 25)",0.096
15,"UniProt P62960 (peptide sequence: VLGTVKWFNVR, peptide start residue: 57)",-0.184
16,"UniProt P56384 (peptide sequence: VAYRPISASVLSRPETR, peptide start residue: 20)",0.695

# Random excerpt: two entries already listed, in no set order.
row,Target,log2 fold change
8,"UniProt P55292 (peptide sequence: GNENGNFK, peptide start residue: 398)",0.589
14,"UniProt P60840 (peptide sequence: EGILPEKAEEAK, peptide start residue: 25)",0.096

# The listing continues:

row,Target,log2 fold change
1,"UniProt P54071 (peptide sequence: GKLDGNQDLIR, peptide start residue: 383)",0.178
2,"UniProt P56959 (peptide sequence: GGFPSGGGGGGGQQR, peptide start residue: 401)",0.227
3,"UniProt P59326 (peptide sequence: LENNDNKPVTNSR, peptide start residue: 521)",-0.325
4,"UniProt P58501 (peptide sequence: NSIGCSDVEKR, peptide start residue: 868)",0.522
5,"UniProt P58390 (peptide sequence: VKNAAANVLR, peptide start residue: 679)",-0.321
6,"UniProt P60334 (peptide sequence: NLVDQGNGK, peptide start residue: 61)",-0.299
7,"UniProt P61458 (peptide sequence: AVGWNEVEGR, peptide start residue: 22)",-0.297
8,"UniProt P59016 (peptide sequence: VDGEYDLKVPR, peptide start residue: 497)",-0.351
9,"UniProt P59041 (peptide sequence: VSEAYLVLGSTILRR, peptide start residue: 87)",0.239
10,"UniProt P59281 (peptide sequence: HMDPVNDTK, peptide start residue: 825)",-0.634
11,"UniProt P61213 (peptide sequence: TVTFHFWDVGGQEK, peptide start residue: 68)",-0.208
12,"UniProt P54841 (peptide sequence: GFTKDEVIR, peptide start residue: 230)",0.0621
13,"UniProt P58660 (peptide sequence: AQQLLEVQEK, peptide start residue: 760)",-0.125
14,"UniProt P56379 (peptide sequence: MFQTLIQK, peptide start residue: 1)",0.371
15,"UniProt P58742 (peptide sequence: GQWINLPVLHLTK, peptide start residue: 40)",0.288
